Some compounds share one wording; it may come from a single statement.
Experiments:
[1] = SWIR imaging (above 1000 nm) of vials of purified fluorescent proteins, signal per concentration; conditions: for signal per conc.: emission above 1000 nm, counts normalised to excitation power [mW/cm^2], exposure time [ms], concentration [mu M], slope of linear fit; for emission beyond 1000 nm: excitation 470 nm, 565 nm, 660 nm respectively, InGaAs camera, 1000 nm long-pass
[2] = Fluorescent protein signal in context of autofluorescence of the lower back of mice; parameters: species or system mouse; conditions: above 1000 nm; for autofluorescence equiv. conc.: inverse of signal over background, minimal protein concentration matching autofluorescence of mouse lower back

Substance | signal per concentration compared to sfGFP ([1]; above 1000 nm) | signal per concentration compared to tdTomato ([1]; above 1000 nm) | signal per conc. [1] | emission beyond 1000 nm [1] | signal over concentration compared to tdTomato, after considering autofluorescence [2] | signal over concentration relative to sfGFP, after considering autofluorescence (factor) [2] | autofluorescence equiv. conc. [2]
IRFP720: near-infrared fluorescent protein derived from Rhodopseudomonas palustris, e.g. SEQ ID NO: 59 (also SEQ ID NO: 3, 25) | three-orders of magnitude higher | factor nine higher | 15.5 ± 0.1 | exhibit emission beyond 1000 nm | factor three more | 670 | 0.0747 ± 0.02
sfGFP: fluorescent protein sfGFP having e.g. SEQ ID NO: 61 | – | – | 0.0147 ± 0.0007 | exhibit emission beyond 1000 nm | – | – | 49.4 ± 10.0

Source: patent US12618846B2, “Method and device for imaging fluorescent proteins in near- and short-wave infrared” (HELMHOLTZ ZENTRUM MÜNCHEN—DEUTSCHES FORSCHUNGSZENTRUM FÜR …, priority 2019, dated 2026)
